Test results published in paper PMC10138931.
Results are given in words; binding and its absence hold for the method and conditions named. In cells and extracts the contact can be indirect. Some entries that bind do so weakly or less than the wild type.

Amino acid sequences for entries named in this document (tags omitted). A change or cut given only in a name is not applied to a line headed by its entry. Chains listed by the source or under a name are the forms on record and can include a tag or linker.
Thyroid hormone receptor-interacting protein 12 (human (endogenous in T-REx 293 and HeLa)) (Q14669, form named): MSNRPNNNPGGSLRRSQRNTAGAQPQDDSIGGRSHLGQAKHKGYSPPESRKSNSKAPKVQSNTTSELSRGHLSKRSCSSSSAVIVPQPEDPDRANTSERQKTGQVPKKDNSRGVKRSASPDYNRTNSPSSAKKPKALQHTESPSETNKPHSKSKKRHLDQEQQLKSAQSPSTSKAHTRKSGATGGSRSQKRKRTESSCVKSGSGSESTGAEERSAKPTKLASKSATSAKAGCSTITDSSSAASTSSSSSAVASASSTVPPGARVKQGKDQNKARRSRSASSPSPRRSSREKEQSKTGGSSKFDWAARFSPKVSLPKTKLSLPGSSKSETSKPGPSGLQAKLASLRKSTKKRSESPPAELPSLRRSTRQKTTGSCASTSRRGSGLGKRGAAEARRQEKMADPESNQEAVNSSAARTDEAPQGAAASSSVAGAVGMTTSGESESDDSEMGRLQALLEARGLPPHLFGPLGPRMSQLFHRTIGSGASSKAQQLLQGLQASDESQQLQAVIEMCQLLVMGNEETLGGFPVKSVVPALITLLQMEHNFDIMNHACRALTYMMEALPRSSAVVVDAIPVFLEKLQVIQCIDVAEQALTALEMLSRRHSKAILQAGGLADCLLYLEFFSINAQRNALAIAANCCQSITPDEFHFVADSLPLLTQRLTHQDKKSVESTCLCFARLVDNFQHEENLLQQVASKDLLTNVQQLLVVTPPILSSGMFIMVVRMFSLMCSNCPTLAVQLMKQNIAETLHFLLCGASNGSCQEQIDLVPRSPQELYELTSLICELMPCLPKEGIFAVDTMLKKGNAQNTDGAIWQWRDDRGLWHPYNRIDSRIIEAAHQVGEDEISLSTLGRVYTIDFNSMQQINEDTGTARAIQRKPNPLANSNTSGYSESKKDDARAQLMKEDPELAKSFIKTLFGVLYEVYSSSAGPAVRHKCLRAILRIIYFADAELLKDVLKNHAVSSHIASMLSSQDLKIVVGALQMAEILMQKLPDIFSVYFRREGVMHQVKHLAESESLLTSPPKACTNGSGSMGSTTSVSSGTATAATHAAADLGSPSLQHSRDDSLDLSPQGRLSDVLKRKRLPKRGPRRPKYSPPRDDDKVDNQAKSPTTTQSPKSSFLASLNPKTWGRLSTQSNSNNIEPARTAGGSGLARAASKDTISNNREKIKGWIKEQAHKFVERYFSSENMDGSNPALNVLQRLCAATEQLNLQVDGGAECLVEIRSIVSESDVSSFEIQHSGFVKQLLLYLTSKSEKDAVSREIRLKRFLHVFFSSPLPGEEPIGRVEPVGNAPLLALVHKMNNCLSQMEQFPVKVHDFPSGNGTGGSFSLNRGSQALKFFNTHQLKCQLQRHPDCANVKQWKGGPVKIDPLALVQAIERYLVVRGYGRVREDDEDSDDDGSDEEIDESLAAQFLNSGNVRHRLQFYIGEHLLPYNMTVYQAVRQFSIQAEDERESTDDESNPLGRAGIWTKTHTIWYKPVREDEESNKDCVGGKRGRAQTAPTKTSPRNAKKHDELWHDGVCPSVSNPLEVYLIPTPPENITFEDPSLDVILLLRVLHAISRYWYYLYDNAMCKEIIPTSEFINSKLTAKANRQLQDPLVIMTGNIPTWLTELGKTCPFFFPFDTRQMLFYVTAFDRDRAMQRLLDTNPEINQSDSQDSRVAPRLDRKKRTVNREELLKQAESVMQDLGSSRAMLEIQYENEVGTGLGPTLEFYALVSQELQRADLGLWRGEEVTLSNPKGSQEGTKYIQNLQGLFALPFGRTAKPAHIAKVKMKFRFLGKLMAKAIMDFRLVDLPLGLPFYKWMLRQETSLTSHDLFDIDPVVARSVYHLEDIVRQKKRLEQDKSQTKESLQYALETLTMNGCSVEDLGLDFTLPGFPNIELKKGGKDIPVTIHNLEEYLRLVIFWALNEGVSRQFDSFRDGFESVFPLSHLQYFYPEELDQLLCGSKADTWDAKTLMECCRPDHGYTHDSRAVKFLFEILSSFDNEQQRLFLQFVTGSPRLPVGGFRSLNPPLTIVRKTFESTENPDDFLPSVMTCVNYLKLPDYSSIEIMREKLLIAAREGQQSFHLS
UniProt P12956: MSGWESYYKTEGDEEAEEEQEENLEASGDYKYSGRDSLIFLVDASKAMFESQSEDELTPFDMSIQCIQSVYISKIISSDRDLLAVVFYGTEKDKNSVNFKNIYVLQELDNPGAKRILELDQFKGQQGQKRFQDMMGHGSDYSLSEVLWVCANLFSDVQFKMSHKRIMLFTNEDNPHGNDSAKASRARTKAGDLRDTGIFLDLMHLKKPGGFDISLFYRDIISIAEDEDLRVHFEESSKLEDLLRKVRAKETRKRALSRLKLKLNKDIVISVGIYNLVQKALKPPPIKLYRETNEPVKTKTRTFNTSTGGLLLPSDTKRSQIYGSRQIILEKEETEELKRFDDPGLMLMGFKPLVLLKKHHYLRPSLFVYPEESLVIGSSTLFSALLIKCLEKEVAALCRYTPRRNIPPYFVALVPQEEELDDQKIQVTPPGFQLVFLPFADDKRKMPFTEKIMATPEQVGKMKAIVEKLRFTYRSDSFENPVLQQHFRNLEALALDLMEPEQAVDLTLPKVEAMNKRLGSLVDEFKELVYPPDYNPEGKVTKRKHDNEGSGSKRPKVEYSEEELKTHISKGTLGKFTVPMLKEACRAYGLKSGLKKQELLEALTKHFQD

Target: Thyroid hormone receptor-interacting protein 12 (human (endogenous in T-REx 293 and HeLa)) (UniProt Q14669)
Assay: co-IP; HeLa whole cell extracts (500 ug), untreated or 1 h after 40 Gy IR; immunoprecipitation with anti-TRIP12 antibody (or control IgG), Protein G magnetic beads, 4 C; wash 20 mM HEPES pH 7.4, 100 mM NaCl, 0.05% NP-40; blot for Ku70 and TRIP12

## endogenous Ku70 (from UniProt P12956 1-609)
  binding: binds
